PubChem BioAssay AID1159584 | Peter MacCallum Cancer Centre | 2016

Test: 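Genes whose loss is lethal only together with E-cadherin loss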 (primary screen)
Cell system: human MCF10A breast epithelial cells, parental and CDH1-null
Reagent: siRNA against human genes
Measurement: 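ATP luminescence (CellTiter-Glo) viability per line relative to mean mock wells over all plates, and the ratio of CDH1-null to parental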
Scale: CDH1-null / parental viability ratio: higher = CDH1-null cells survive relatively better than parental; CDH1-null viability vs mock: higher = more viable CDH1-null cells; parental viability vs mock: higher = more viable parental cells
The whole screen tested about 18,000 reagents; below is an unselected part. No sequences are given here. The record does not give: the amount of reagent, the time to read-out.

| target gene | PubChem SID | CDH1-null / parental viability ratio | CDH1-null viability vs mock (fraction of mock) | parental viability vs mock (fraction of mock) |
| --- | --- | --- | --- | --- |
| MMP21 (matrix metallopeptidase 21) | SID134311386 | 1.55 | 0.68 | 0.44 |
| PYGO1 (pygopus family PHD finger 1) | SID135622635 | 1.15 | 0.62 | 0.54 |
| GPC2 (glypican 2) | SID134320251 | 1.38 | 1.05 | 0.76 |
| AACS (acetoacetyl-CoA synthetase) | SID152153685 | 0.73 | 0.38 | 0.52 |
| PHF3 (PHD finger protein 3) | SID152155695 | 0.91 | 0.78 | 0.86 |
| SMYD1 (SET and MYND domain containing 1) | SID135624330 | 0.89 | 0.7 | 0.79 |
| SPMIP4 (sperm microtubule inner protein 4) | SID134319950 | 1.38 | 0.47 | 0.34 |
| CEBPB (CCAAT enhancer binding protein beta) | SID152152045 | 0.97 | 0.68 | 0.7 |
| ATP6V0D2 (ATPase H+ transporting V0 subunit d2) | SID134310745 | 0.82 | 0.66 | 0.8 |
| MAPK1IP1L | SID152150931 | 0.96 | 1.24 | 1.29 |
| CYP7A1 (cytochrome P450 family 7 subfamily A member 1) | SID134313645 | 1.04 | 1.06 | 1.02 |
| RPGR (retinitis pigmentosa GTPase regulator) | SID135623730 | 1.02 | 0.92 | 0.9 |
| AGER (advanced glycosylation end-product specific receptor) | SID152154070 | 0.81 | 0.74 | 0.91 |
| USP37 (ubiquitin specific peptidase 37) | SID134311506 | 1.25 | 1.01 | 0.81 |
| TFAP4 (transcription factor AP-4) | SID134314239 | 1.03 | 0.92 | 0.89 |
| NCR2 (natural cytotoxicity triggering receptor 2) | SID152155421 | 1.09 | 0.96 | 0.88 |
| GLDC (glycine decarboxylase) | SID152147075 | 1.01 | 0.8 | 0.79 |
| PM20D1 (peptidase M20 domain containing 1) | SID134320716 | 0.84 | 0.54 | 0.64 |
| TSPAN11 (tetraspanin 11) | SID135625351 | 1.2 | 0.77 | 0.64 |
| PATE1 (prostate and testis expressed 1) | SID135621665 | 1.24 | 1.02 | 0.82 |
| TTC23L (tetratricopeptide repeat domain 23 like) | SID152155402 | 1.17 | 0.61 | 0.52 |
| RFX6 (regulatory factor X6) | SID134322297 | 1.07 | 1.03 | 0.96 |
| MRPL24 (mitochondrial ribosomal protein L24) | SID134321378 | 0.92 | 0.72 | 0.78 |
| OTOG (otogelin) | SID152151296 | 0.99 | 0.77 | 0.78 |
| GCSAM (germinal center associated signaling and motility) | SID135623719 | 1.13 | 1.23 | 1.09 |
| TXNDC12 (thioredoxin domain containing 12) | SID152156542 | 0.95 | 0.7 | 0.74 |
| SUSD6 (sushi domain containing 6) | SID134323987 | 0.76 | 0.58 | 0.76 |
| RBM43 (RNA binding motif protein 43) | SID134326854 | 0.96 | 0.9 | 0.94 |
| ATP6V0A4 (ATPase H+ transporting V0 subunit a4) | SID152152671 | 1.01 | 0.94 | 0.93 |
| ACER3 (alkaline ceramidase 3) | SID152155309 | 1.11 | 0.97 | 0.87 |
| NOD1 (nucleotide binding oligomerization domain containing 1) | SID134310435 | 0.87 | 0.76 | 0.87 |
| DPY30 (dpy-30 histone methyltransferase complex regulatory subunit) | SID152150361 | 1.01 | 0.89 | 0.88 |
| BBX (BBX high mobility group box domain containing) | SID152153319 | 1.27 | 0.66 | 0.52 |
| NISCH (nischarin) | SID152156098 | 0.92 | 0.92 | 1 |
| RNF14 (ring finger protein 14) | SID135621267 | 0.94 | 0.58 | 0.62 |
| CILK1 (ciliogenesis associated kinase 1) | SID152149076 | 0.88 | 0.91 | 1.03 |
| PSMD5 (proteasome 26S subunit, non-ATPase 5) | SID134316311 | 1.2 | 1.1 | 0.92 |
| DRG2 (developmentally regulated GTP binding protein 2) | SID134315607 | 1.05 | 0.69 | 0.66 |
| CENPI (centromere protein I) | SID152147756 | 0.89 | 0.82 | 0.92 |

6 entries from above, limited to “CDH1-null viability vs mock (fraction of mock)”.
PM20D1 (peptidase M20 domain containing 1) [SID134320716]	0.54
TSPAN11 (tetraspanin 11) [SID135625351]	0.77
PATE1 (prostate and testis expressed 1) [SID135621665]	1.02
TTC23L (tetratricopeptide repeat domain 23 like) [SID152155402]	0.61
RFX6 (regulatory factor X6) [SID134322297]	1.03
MRPL24 (mitochondrial ribosomal protein L24) [SID134321378]	0.72

Additional records:
| target gene | PubChem SID | CDH1-null / parental viability ratio | CDH1-null viability vs mock (fraction of mock) | parental viability vs mock (fraction of mock) |
| --- | --- | --- | --- | --- |
| SEMA6A (semaphorin 6A) | SID152151964 | 1.12 | 0.76 | 0.68 |
| CAP1 (cyclase associated actin cytoskeleton regulatory protein 1) | SID152149129 | 0.91 | 0.8 | 0.88 |
| PRPH (peripherin) | SID152154600 | 1.01 | 1.17 | 1.16 |
| ERG28 (ergosterol biosynthesis 28 homolog) | SID134323456 | 0.76 | 0.7 | 0.92 |
| SYNCRIP (synaptotagmin binding cytoplasmic RNA interacting protein) | SID134320219 | 0.84 | 0.36 | 0.43 |
| SSH1 (slingshot protein phosphatase 1) | SID134313013 | 1.24 | 0.92 | 0.74 |
| METTL21C (methyltransferase 21C, AARS1 lysine) | SID152153282 | 0.81 | 0.73 | 0.9 |
| SPDYE3 (speedy/RINGO cell cycle regulator family member E3) | SID135625135 | 1.01 | 0.74 | 0.73 |
| ARHGEF25 (Rho guanine nucleotide exchange factor 25) | SID152148884 | 1.1 | 1.02 | 0.93 |
| COL20A1 (collagen type XX alpha 1 chain) | SID152155090 | 0.76 | 0.26 | 0.34 |
| SLCO2B1 | SID135621370 | 1.06 | 0.72 | 0.68 |
| AVPR2 (arginine vasopressin receptor 2) | SID134310885 | 0.95 | 0.8 | 0.84 |
| MIPOL1 (mirror-image polydactyly 1) | SID152152195 | 1.29 | 0.88 | 0.68 |
| MEDAG (mesenteric estrogen dependent adipogenesis) | SID134320345 | 0.91 | 0.67 | 0.74 |
| ATPAF1 (ATP synthase mitochondrial F1 complex assembly factor 1) | SID135622598 | 1.13 | 1.15 | 1.02 |
| ACAD10 (acyl-CoA dehydrogenase family member 10) | SID56479184 | 0.92 | 0.72 | 0.78 |
| MRPS30 (mitochondrial ribosomal protein S30) | SID135622480 | 0.98 | 0.88 | 0.9 |
| MMAB (metabolism of cobalamin associated B) | SID152154463 | 1.02 | 0.86 | 0.84 |
| RGS4 (regulator of G protein signaling 4) | SID152148559 | 1.04 | 0.77 | 0.74 |
| RASAL3 (RAS protein activator like 3) | SID152151909 | 1.11 | 0.84 | 0.76 |
| CYP3A7 (cytochrome P450 family 3 subfamily A member 7) | SID134313496 | 1.28 | 1.13 | 0.88 |
| TRMT44 (tRNA methyltransferase 44 homolog) | SID134319584 | 1.03 | 0.62 | 0.6 |
| NR2C2AP (nuclear receptor 2C2 associated protein) | SID152148127 | 0.81 | 0.55 | 0.68 |
| H3C15 (H3 clustered histone 15) | SID135625600 | 1.14 | 0.84 | 0.74 |
| PRKAA1 (protein kinase AMP-activated catalytic subunit alpha 1) | SID152155693 | 0.96 | 0.88 | 0.92 |
| CHST2 (carbohydrate sulfotransferase 2) | SID152147230 | 1.01 | 0.91 | 0.9 |
| TRIM31 (tripartite motif containing 31) | SID135621274 | 0.91 | 0.62 | 0.68 |
| TRNAU1AP (tRNA selenocysteine 1 associated protein 1) | SID152152700 | 1.26 | 0.92 | 0.73 |
| LRRN1 (leucine rich repeat neuronal 1) | SID135623752 | 1.03 | 0.38 | 0.37 |
